Earlier results as cited in PMC8707461, “In Vitro and In Vivo Inhibition of MATE1 by Tyrosine Kinase Inhibitors” (Pharmaceutics, 2021).

Tested on: MATE1
Conditions: publicly available information; ref FDA/EMA or supplement refs 1-8; cited from earlier work

CNC(=O)c1ccccc1Sc1ccc2c(/C=C/c3ccccn3)n[nH]c2c1 [Axitinib]
IC50: < 10 µM
